These results are taken from PMC11501031.

The target in test [1] is T1, Nanos, full length, fused to a DNA-binding domain (two-hybrid bait) (Drosophila) (UniProt P25724).
T1 sequence: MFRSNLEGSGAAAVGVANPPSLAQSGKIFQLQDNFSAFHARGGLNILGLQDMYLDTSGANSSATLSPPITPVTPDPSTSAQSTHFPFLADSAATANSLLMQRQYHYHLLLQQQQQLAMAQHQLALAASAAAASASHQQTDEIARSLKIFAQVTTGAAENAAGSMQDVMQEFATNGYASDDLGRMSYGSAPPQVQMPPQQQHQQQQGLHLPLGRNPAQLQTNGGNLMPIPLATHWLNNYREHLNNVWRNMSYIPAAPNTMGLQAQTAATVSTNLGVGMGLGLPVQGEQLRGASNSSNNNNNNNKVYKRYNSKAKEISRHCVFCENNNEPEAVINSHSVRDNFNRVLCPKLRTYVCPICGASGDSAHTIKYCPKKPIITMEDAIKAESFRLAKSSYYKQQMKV
Description: two-hybrid; yeast PJ69-4A; DBD fusion as bait, AD fusion as prey; lacZ reporter, beta-galactosidase measured with Beta-Glo in arbitrary light units; three transformants each; control is the empty AD vector.

Test [2] has as its target Bruno as expressed in the yeast four-hybrid experiments (bound to RNA bearing BREs) (Drosophila). Description: yeast four-hybrid; yeast YBZ1 (LexA-MS2 coat, lexA-op-lacZ); Bru bound to a hybrid RNA bearing wild-type BREs; recruitment of AD fusions of Nos read by beta-galactosidase (Beta-Glo); triple transformants.
In test [3] the target is Bruno fused to a DNA-binding domain (two-hybrid bait) (Drosophila). Description: two-hybrid; yeast PJ69-4A; DBD fusion as bait, AD fusion as prey; lacZ reporter, beta-galactosidase measured with Beta-Glo in arbitrary light units; three transformants each; control is the empty AD vector.

Results are given in words; binding and its absence hold for the method and conditions named. Binding calls can cover weak binding; strength is not graded here. Tags and fused reporters may be left off the sequences shown.

Consider “Bruno fragment fused to a transcriptional activation domain (two-hybrid prey) (Drosophila) (domain or fragment)”, for which the binding entry in test [1] is “binds”.
On the same count and under the same terms, to “NOT4 fused to a transcriptional activation domain (two-hybrid prey) (Drosophila)” belongs “binds”.

B1: Nanos fused to a transcriptional activation domain (protein, UniProt P25724 1-401)
chain: MFRSNLEGSGAAAVGVANPPSLAQSGKIFQLQDNFSAFHARGGLNILGLQDMYLDTSGANSSATLSPPITPVTPDPSTSAQSTHFPFLADSAATANSLLMQRQYHYHLLLQQQQQLAMAQHQLALAASAAAASASHQQTDEIARSLKIFAQVTTGAAENAAGSMQDVMQEFATNGYASDDLGRMSYGSAPPQVQMPPQQQHQQQQGLHLPLGRNPAQLQTNGGNLMPIPLATHWLNNYREHLNNVWRNMSYIPAAPNTMGLQAQTAATVSTNLGVGMGLGLPVQGEQLRGASNSSNNNNNNNKVYKRYNSKAKEISRHCVFCENNNEPEAVINSHSVRDNFNRVLCPKLRTYVCPICGASGDSAHTIKYCPKKPIITMEDAIKAESFRLAKSSYYKQQMKV
With B1, the binding entry in test [2] and in test [3] was “binds” each time.
